Test results taken from patent publication US20130224202A1.
Results are given in words; binding and its absence hold for the method and conditions named. Some binding calls cover weakened binding; strength is not graded here.

Experiments:
human CD133 (human) [1] = molecular target: T1, human CD133 (human) (UniProt O43490); assay: immunofluorescence on fixed CD133+ Caco-2 cells
T1 sequence: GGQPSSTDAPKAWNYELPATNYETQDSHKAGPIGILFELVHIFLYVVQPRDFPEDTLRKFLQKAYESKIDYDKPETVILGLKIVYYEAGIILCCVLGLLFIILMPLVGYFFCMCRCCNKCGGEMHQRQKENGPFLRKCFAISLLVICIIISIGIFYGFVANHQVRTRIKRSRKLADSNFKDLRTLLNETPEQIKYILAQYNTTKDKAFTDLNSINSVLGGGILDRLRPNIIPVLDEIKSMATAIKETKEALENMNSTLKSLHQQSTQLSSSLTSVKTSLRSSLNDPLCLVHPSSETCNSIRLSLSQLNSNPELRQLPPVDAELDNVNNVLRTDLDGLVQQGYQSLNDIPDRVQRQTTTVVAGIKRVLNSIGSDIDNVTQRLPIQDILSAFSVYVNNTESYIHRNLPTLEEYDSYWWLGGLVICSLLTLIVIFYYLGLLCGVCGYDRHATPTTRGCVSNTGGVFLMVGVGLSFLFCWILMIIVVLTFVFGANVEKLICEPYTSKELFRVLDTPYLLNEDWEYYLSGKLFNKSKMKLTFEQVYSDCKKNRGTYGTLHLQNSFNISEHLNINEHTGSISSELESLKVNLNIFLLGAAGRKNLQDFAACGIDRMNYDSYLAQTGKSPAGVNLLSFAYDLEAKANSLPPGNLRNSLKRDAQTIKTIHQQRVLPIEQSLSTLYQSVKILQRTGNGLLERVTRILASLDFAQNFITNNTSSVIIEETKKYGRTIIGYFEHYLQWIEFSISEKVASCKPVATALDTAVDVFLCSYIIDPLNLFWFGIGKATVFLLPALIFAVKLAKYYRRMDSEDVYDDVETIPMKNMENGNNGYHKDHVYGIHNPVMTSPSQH

human CD133 (human) [2] = molecular target: T1, human CD133 (human); assay: immunohistochemistry on human glioma and kidney tissue sections
[3] = molecular target: T2, recombinant chimeric CD133 antigen (human) (UniProt O43490); assay: ELISA of hybridoma supernatants against recombinant CD133; Hybridoma Clone 7 is one of the screened hybridomas
T2 sequence: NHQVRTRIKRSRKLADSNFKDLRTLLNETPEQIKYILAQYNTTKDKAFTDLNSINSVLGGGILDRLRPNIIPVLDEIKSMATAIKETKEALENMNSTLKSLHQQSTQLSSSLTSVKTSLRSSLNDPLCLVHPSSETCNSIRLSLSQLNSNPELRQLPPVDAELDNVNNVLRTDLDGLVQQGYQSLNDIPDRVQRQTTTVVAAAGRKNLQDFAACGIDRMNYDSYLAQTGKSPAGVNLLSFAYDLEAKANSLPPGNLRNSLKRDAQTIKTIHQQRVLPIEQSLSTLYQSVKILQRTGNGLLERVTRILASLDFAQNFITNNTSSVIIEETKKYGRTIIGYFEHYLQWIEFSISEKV

human CD133 (human) [4] = molecular target: T1, human CD133 (human); assay: flow cytometry
human CD133 (human) [5] = molecular target: T1, human CD133 (human); assay: flow cytometry on U87 cells transfected with human CD133 cDNA
human CD133 (human) [6] = molecular target: T1, human CD133 (human); assay: flow cytometry on Caco-2 and GBM6 cells
human CD133 (human) [7] = molecular target: T1, human CD133 (human); assay: Western blot of Caco-2 lysate with hybridoma supernatant
human CD133 (human) [8] = molecular target: T1, human CD133 (human); assay: Western blot of lysates of tunicamycin-treated Caco-2 cells
human CD133 (human) [9] = molecular target: T1, human CD133 (human); assay: flow cytometry on HEK293-TLR2 cells transfected with CD133
human CD133 (human) [10] = molecular target: T1, human CD133 (human); assay: flow cytometry on HEK293-TLR2 cells transfected with CD133, figure legend

Measured: binding

B1: monoclonal antibody produced by Hybridoma Clone 7 (antibody, V domains shown)
VH: EVKLVESGPELKKPGETVKISCKASGYTFTDYSMHWVNQAPGKGLKWMGWINTETGEPSYADDFKGRFAFSLETSASTAYLQINNLKNEDTATYFCATDYGDYFDYWGQGTTLTVSS
VL: DIVLSQSPAIMSASPGEKVTISCSASSSVSYMYWYQQKPGSSPKPWIYRTSNLASGVPARFSGSGSGTSYSLTISSMEAEDAATYYCQQYHSYPPTFGAGTKLELK
not listed: human CD133 (human) [9] | human CD133 (human) [10]
binds: all other assays above

B2: FITC-labeled CD133scFv (scFv)
scFv: MDIVLSQSPAIMSASPGEKVTISCSASSSVSYMYWYQQKPGSSPKPWIYRTSNLASGVPARFSGSGSGTSYSLTISSMEAEDAATYYCQQYHSYPPTFGAGTKLELKSSGGGGSGGGGGGSSRSSLEVKLVESGPELKKPGETVKISCKASGYTFTDYSMHWVNQAPGKGLKWMGWINTETGEPSYADDFKGRFAFSLETSASTAYLQINNLKNEDTATYFCATDYGDYFDYWGQGTTLTVSS
binds: human CD133 (human) [9] | human CD133 (human) [10]
